Reference: patent publication US20150184221

Legend:
[1] = test system: R.HaeIII-type activity (Cyanobacterium sp. (first strain)); experiment: enzyme reaction in vitro; settings: extract, no double band; protein in an extract
[2] = test system: R.AvaII; experiment: enzyme reaction in vitro; settings: approx 380 bp ROligo; printed sequence is the central primer region; purified recombinant protein; protein details: commercially available
[3] = test system: R.AvaI; experiment: enzyme reaction in vitro; settings: approx 380 bp ROligo; printed sequence is the central primer region; purified recombinant protein; protein details: commercially available
[4] = test system: R.SphI; experiment: enzyme reaction in vitro; settings: approx 380 bp ROligo; printed sequence is the central primer region; purified recombinant protein; protein details: commercially available
[5] = test system: R.SphI-type activity (Cyanobacterium sp. (first strain)); experiment: enzyme reaction in vitro; settings: extract, no double band; protein in an extract
[6] = test system: R.PvuII-type activity (Lyngbya sp. (first strain)); experiment: enzyme reaction in vitro; settings: protein in an extract
[7] = test system: M.CviPI; experiment: activity assay; settings: methylation with SAM, 37 C overnight; protects from Lyngbya extract; purified recombinant protein; protein details: commercially available

CGGTTACAGTCTGTAACGGTCCCAGTTTTCAGCCACTCCAAACG (double strand) [ROligo.AvaII]
activity on this sequence [1]: not active
activity on this sequence [2]: active

GGTTACAGTCTGTAACCTCGGGCAGTTTTCAGCCACTCCAAACG (double strand) [ROligo.AvaI]
activity on this sequence [3]: active

GGTTACAGTCTGTAACGCATGCCAGTTTTCAGCCACTCCAAACG (double strand) [ROligo.SphI]
activity on this sequence [4]: active

GGTTACAGTCTGTAACGCATGTCAGTTTTCAGCCACTCCAAACG (double strand) [ROligo.NspI]
activity on this sequence [5]: not active

GTTACAGTCTGTAACCAGCTGACAGTTTTCAGCCACTCCAAACG (double strand) [ROligo.PvuII Gm5C-methylated]
activity on this sequence ([6]; 5mC at GC sites (CAGm5CTG), cleavage blocked by M.CviPI methylation, variant of ROligo.PvuII): not active

GTTACAGTCTGTAACCAGCTGACAGTTTTCAGCCACTCCAAACG (double strand) [ROligo.PvuII]
activity on this sequence ([6]; Lyngbya extract): active
activity on this sequence [7]: active

For at least one entry, the source does not settle the construct or the ends of the probe. For some assays here: Negatives hold for the conditions tested.
